According to paper PMC12245036:
No constants are given. Whether binding was seen depends on the method and setting. In cells and extracts the contact can be indirect. Some entries that bind do so weakly or less than the wild type.

Sequences of proteins named here, by UniProt entry; tags and fusion partners are left off.
UniProt Q92905: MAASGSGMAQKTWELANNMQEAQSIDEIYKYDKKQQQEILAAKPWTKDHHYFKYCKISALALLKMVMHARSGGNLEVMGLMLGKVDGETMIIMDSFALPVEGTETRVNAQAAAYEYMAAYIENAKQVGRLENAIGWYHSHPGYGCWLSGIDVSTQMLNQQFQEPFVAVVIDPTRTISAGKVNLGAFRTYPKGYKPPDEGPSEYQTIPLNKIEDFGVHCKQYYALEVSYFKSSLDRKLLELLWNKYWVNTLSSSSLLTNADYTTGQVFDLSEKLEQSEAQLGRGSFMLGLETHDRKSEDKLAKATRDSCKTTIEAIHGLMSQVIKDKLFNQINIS

Target: T1, Hypermethylated in cancer 1 (HIC1) (human (endogenous in MKN45 and HGC27)) (UniProt Q14526)
T1 sequence: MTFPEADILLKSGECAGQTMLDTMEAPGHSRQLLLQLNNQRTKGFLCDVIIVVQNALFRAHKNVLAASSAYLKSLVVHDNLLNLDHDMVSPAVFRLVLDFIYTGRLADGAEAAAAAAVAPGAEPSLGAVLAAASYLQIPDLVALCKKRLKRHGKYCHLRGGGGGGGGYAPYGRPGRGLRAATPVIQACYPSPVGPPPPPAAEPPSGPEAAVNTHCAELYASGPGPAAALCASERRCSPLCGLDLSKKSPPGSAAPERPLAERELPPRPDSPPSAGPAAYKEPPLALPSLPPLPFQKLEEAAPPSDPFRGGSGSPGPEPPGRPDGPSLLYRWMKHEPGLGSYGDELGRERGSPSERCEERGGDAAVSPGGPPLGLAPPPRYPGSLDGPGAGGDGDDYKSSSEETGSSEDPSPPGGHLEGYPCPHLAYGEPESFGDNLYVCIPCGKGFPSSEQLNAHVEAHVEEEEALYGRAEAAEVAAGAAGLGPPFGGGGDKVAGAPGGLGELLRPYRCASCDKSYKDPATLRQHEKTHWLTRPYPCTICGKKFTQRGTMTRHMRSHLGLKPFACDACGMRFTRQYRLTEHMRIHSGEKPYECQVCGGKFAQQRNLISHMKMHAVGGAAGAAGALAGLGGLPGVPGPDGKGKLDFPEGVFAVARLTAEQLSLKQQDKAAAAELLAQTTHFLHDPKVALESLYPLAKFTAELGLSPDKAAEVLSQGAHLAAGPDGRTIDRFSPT
Assay: co-IP; whole-cell extracts of MKN45 and HGC27 cells in IP/Western lysis solution; incubated with HIC1/Jab1 antibody or IgG at 4 °C overnight, then protein A/G agarose beads for 2 h; western blot

Question: With “c-Jun activation domain-binding protein 1 (Jab1) (from UniProt Q92905 1-334)” as the substance, how does the binding read?
Answer: binds
